From PubChem BioAssay AID1487 (National Center for Advancing Translational Sciences (NCATS), 2009)
Values joined by “and” are separate entries in the source; they are usually repeats but may differ in a detail not shown here. Identical values can stand only once. The list shows a part of the results. Further columns of the screen follow, without active or inactive calls. Most of these compounds were active or inconclusive in the main read-out, so they are no random draw. The note in brackets gives the kind of curve behind each potency; many fits are weak.

Assay: qHTS Assay for Modulators of Lamin A Splicing
Conditions: HeLa LMNA splicing GFP/RFP minigene ratio, 48 h
Outline: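 Read-out is the ratio of GFP to DsRed2 object intensity, acquired by 488 nm laser-scanning cytometry on HeLa lamin A-EGFP minigene reporter cells. Compound incubation 48 hrs at 37 °C in Opti-MEM with 2% FBS; DMSO 0.5% final.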

[1] = measured here: RFP viability control channel
[2] = measured here: GFP splicing reporter channel

Row | SMILES | AC50 [1] | AC50 [2]
1 | COc1cccc2c(SCC(=O)N/N=C/c3ccccc3)cc(C)nc12 | 12.6 µM [rising, partial curve] | 
2 | CCc1ccc(OCC(=O)NC(NC(=S)Nc2ccc(Cl)cc2)C(Cl)(Cl)Cl)cc1 (stereo not drawn) | 12.6 µM [rising, partial curve, poor fit] | 
3 | COc1ccc(-c2nc3cnc(OC)nc3n(-c3ccc(OC)cc3)c2=O)cc1 | 20 µM [falling, single point] | 12.6 µM [falling, partial curve]
4 | Cn1c(SCc2cccc(C(F)(F)F)c2)nnc1-c1ccco1 |  | 10 µM [rising, partial curve, poor fit]
5 | COc1cc(C(c2sc3nc(C)nn3c2O)N2CCN(c3ccccc3)CC2)cc(OC)c1OC (stereo not drawn) | 5.01 µM [rising, full curve, poor fit] | 
6 | Cc1ccccc1N=C/C=C1\N(C)c2ccccc2C1(C)C | 12.6 µM [rising, single point] | 
7 | CC(=O)n1c(Cl)c(NC(=O)CCl)c2ccccc21 | 22.4 µM [falling, partial curve] | 
8 | CCN(CC)S(=O)(=O)c1ccc(C(=O)OCC(=O)NCCN2C(=O)CSC2=O)cc1 | 0.01 µM [falling, full curve, poor fit] | 0.0126 µM [falling, full curve, poor fit]
9 | COC(=O)c1ccccc1NC(=O)c1cc(C2CC2)on1 | 14.1 µM [rising, partial curve] | 
10 | CCSc1nnc(NC(=O)CSc2nc(C)cc(C)n2)s1 | 31.6 µM [rising, single point] | 
11 | COc1ccc(NC(=O)N2CCCCC2c2cccnc2)cc1 (stereo not drawn) | 1.78 µM [rising, partial curve] | 2 µM [rising, partial curve]
12 | CC(CN1c2ccccc2Sc2ccccc21)N(C)C (stereo not drawn) | 56.2 nM [falling, partial curve, poor fit] and 5.62 µM [falling, single point] | 0.0282 µM [falling, partial curve, poor fit]
13 | O=C1C2CCCN2C(=O)N1CCN1CCN(CCO)CC1 (stereo not drawn) | 10 µM [falling, partial curve, poor fit] | 
14 | Cc1nn(CC(=O)NCC2CCCO2)c(C)c1[N+](=O)[O-] (stereo not drawn) |  | 0.0562 µM [falling, full curve, poor fit]
15 | Cc1cccc(Cn2cccc2CNS(=O)(=O)c2ccc(Br)cc2)c1 | 35.5 µM [falling, single point] | 35.5 µM [falling, single point]
16 | COc1ccc(NC(=O)c2cccs2)cc1O | 11.2 µM [rising, single point] | 
17 | CCOC(=O)C1=C(C)NC(C)=C(C(=O)OCC)C1C(=O)OCC(=O)N(C)C1CCS(=O)(=O)C1 (stereo not drawn) | 0.708 µM [rising, partial curve, poor fit] | 0.631 µM [rising, partial curve, poor fit]
18 | CC1(C)CC(=O)C2=C(C1)NC(SCC(=O)Nc1ccccc1)=C(C#N)C2c1ccco1 (stereo not drawn) | 11.2 µM [rising, single point] | 
19 | NS(=O)(=O)c1ccc(CCNC(=O)CN2CCN(c3ccccc3F)CC2)cc1 |  | 0.1 µM [falling, full curve, poor fit]
20 | Cc1ccc2nc(SCc3nc4ccccc4c(=O)[nH]3)[nH]c2c1 |  | 0.0251 µM [falling, full curve, poor fit]
21 | Cc1onc(-c2c(F)cccc2Cl)c1C(=O)OCn1nnc2ccccc2c1=O | 35.5 µM [rising, single point] | 
22 | O=C(COC(=O)c1ccncc1)c1ccc(Br)cc1 | 0.00316 µM [falling, full curve, poor fit] | 
23 | COc1cccc(C(=O)N2CCC(O)(c3cccnc3)CC2)c1 | 0.1 µM [rising, full curve, poor fit] | 7.08 µM [rising, full curve, poor fit]
24 | O=c1c(-c2ccccc2)nc2cnc(N3CCOCC3)nc2n1Cc1ccc(F)cc1 | 0.00355 µM [falling, full curve, poor fit] | 0.00398 µM [falling, full curve, poor fit]
25 | CC1(C)[C@@H](OC(=O)CCC(=O)O)CC[C@@]2(C)[C@H]1CC[C@@]1(C)[C@H]2C(=O)C=C2[C@H]3C[C@](C)(C(=O)O)CC[C@]3(C)CC[C@@]21C | 3.16 µM [falling, single point] | 3.16 µM [falling, single point]
26 | CCOC(=O)C(C)Sc1ccc2nnc(CCNS(=O)(=O)c3ccccc3)n2n1 (stereo not drawn) | 0.02 µM [falling, full curve, poor fit] | 
27 | Fc1ccc(CSc2nc3ccccc3[nH]2)c2ccccc12 | 14.1 µM [rising, single point] | 

Row | SMILES | AC50 [1] | AC50 [2]
28 | O=c1c2ccccc2nnn1CSc1nnc(C2COc3ccccc3O2)n1-c1ccccc1 (stereo not drawn) | 7.08 µM [rising, partial curve] | 
29 | O[C@@H](c1cc(C(F)(F)F)nc2c(C(F)(F)F)cccc12)[C@H]1CCCCN1 | 35.5 µM [rising, single point] | 35.5 µM [rising, single point]
30 | Cc1cccc(C(=O)N2CCc3cc(-c4nc(NC(=O)Cn5nnc6ccccc6c5=O)sc4C)ccc32)c1 | 8.91 µM [rising, partial curve] | 
31 | COCCCNC(=S)N1CCN(c2ccc([N+](=O)[O-])cc2)CC1 | 2.51 µM [rising, partial curve] | 
32 | CC1CCc2sc(C(=O)Nc3nnc(SCc4ccc(F)cc4)s3)cc2C1 (stereo not drawn) | 5.62 µM [rising, single point] | 
33 | Cc1ccc(NNC(=O)C(O)(c2cccc(C(F)(F)F)c2)c2cccc(C(F)(F)F)c2)cc1 |  | 11.2 µM [falling, partial curve]
34 | O=C(O)C1C2CCC(O2)C1C(=O)NCCC1=CCCCC1 (stereo not drawn) | 14.1 µM [rising, single point] | 12.6 µM [rising, partial curve]
35 | NS(=O)(=O)c1cc2c(cc1C(F)(F)F)NC(Cc1ccccc1)NS2(=O)=O (stereo not drawn) | 0.501 µM [falling, full curve, poor fit] | 
36 | CCN(CC)CCCN(Cc1cc2cc3c(cc2[nH]c1=O)OCO3)C(=S)NCc1ccco1 |  | 0.0562 µM [rising, full curve, poor fit]
37 | CCOC(=O)Cn1c2c(c(=N)c3ccccc31)CCC2 | 10 µM [rising, partial curve, poor fit] | 11.2 µM [rising, partial curve, poor fit]
38 | Cc1ccc(OCCn2c(=S)[nH]c3c(N)ncnc32)cc1 |  | 5.62 µM [rising, single point]
39 | Nc1ccccc1Nc1cc(-c2ccccc2)[nH]n1 | 6.31 µM [rising, single point] | 
40 | COCCNC(=O)C(c1ccc(O)cc1)N(C(=O)CCC(=O)Nc1nccs1)c1cccc(C)c1 (stereo not drawn) | 35.5 µM [falling, single point] | 3.98 µM [rising, single point]
41 | CC(=O)Nc1ccc2c(COC(=O)CC3Sc4ccccc4NC3=O)cc(=O)oc2c1 (stereo not drawn) |  | 0.00562 µM [falling, full curve, poor fit]
42 | CCC(C)C(=O)OC1CC(O)C=C2C=CC(C)C(CCC(O)CC(O)CC(=O)O)C21 (stereo not drawn) |  | 0.01 µM [falling, full curve, poor fit]
43 | COc1ccccc1CNS(=O)(=O)c1cnc(N)nc1 | 0.0501 µM [falling, full curve, poor fit] | 0.0316 µM [falling, full curve]
44 | CC(C)[C@H](NS(=O)(=O)c1ccc2c(c1)OCCO2)C(=O)OCC(=O)Nc1cc(Cl)ccc1Cl | 35.5 µM [rising, single point] | 
45 | C#CCNc1nc(C(C)C)nc2c1nnn2Cc1ccccc1F | 3.55 µM [falling, single point] | 5.62 µM [falling, single point]
46 | O=C(COc1ccc(Cl)cc1Cl)N(c1ccccn1)C1CCCCC1 | 35.5 µM [rising, single point] | 
47 | O=S(=O)(Cc1cc(N2CCOCC2)nc(-c2ccccn2)n1)c1ccccc1 | 31.6 µM [rising, single point] | 
48 | Cc1nc2ccn(Cc3ccco3)c(=O)c2cc1C(=O)NCc1ccccc1 | 0.708 µM [rising, full curve] | 0.501 µM [rising, full curve, poor fit]
49 | CCOC(=O)C1=C(C)N2C(=C(C#N)[C@@H]1c1ccc(C(=O)OC)cc1)SC[C@@]2(O)C(C)(C)C | 35.5 µM [rising, single point] | 
50 | O=C(CSc1ncnc2c1cnn2CCc1ccccc1)Nc1cccc(C(F)(F)F)c1 | 31.6 µM [rising, single point] | 35.5 µM [rising, single point]
51 | CCc1ccc(NC(=O)COC(=O)C2(c3ccc(Cl)cc3)CCCC2)cc1 | 17.8 µM [rising, single point] | 
52 | NS(=O)(=O)c1ccc(NC(=S)N2CCN(c3cccc(Cl)c3)CC2)cc1 | 35.5 µM [rising, single point] | 15.8 µM [rising, single point]
53 | COc1cc(CNC(=O)c2cccc(COc3ccc(Cl)cc3)c2)cc(OC)c1 | 22.4 µM [rising, single point] | 
54 | COCCn1c(=O)c(-c2ccccc2)nc2cnc(Oc3ccc(OC)cc3)nc21 | 17.8 µM [falling, partial curve, poor fit] | 14.1 µM [falling, partial curve]
